# Source: PubChem BioAssay AID1347423 (Functional Genomics Laboratory (NCATS/FGL), 2020)
# The whole screen tested about 52,000 sequences, of which about 210 (0.4%) were called active.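 The calls were made as follows: active = gene whose silencing raises cell survival under the drug, median off-target-corrected z-score across its silencing RNAs 2 or more; inactive = the rest.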 This is one part of the list.
# Assay: Resistance to Poly (ADP-Ribose) Polymerase inhibitor: Gene Identification via Genome-wide siRNA Screen
# Conditions: mouse BRCA2 R2336H ES cells, olaparib, CellTiter-Glo viability; stronger effect = higher value
# From the text: The role of Poly (ADP-Ribose) Polymerase (PARP) proteins in DNA repair has been elegantly utilized for the synthetic lethality-based treatment of BRCA-deficient tumors by PARP inhibitors. PARP inhibitors are now being used for treatment of BRCA-deficient breast and ovarian cancers. […] While several mechanisms of drug resistance have been identified, majority of these tumors develop drug resistance due to unknown causes. To identified novel regulators of chemo-resistance in BRCA2-mutated cells, we performed a genome wide siRNA library screen. We have found ES cells expressing a hypomorphic allele of BRCA2 to be hypersensitive to PAPP inhibitors (such as olaparib). We used ES cells expressing a mutant allele of BRCA2 that has a single amino acid substitution at position 2336 (arginine to histidine, R2336H). The screen was conducted using an Ambion (Thermo) Silencer Mouse Genome siRNA collection. The library targets 17,575 mouse genes with 3 siRNAs per gene. TET2 (E130014J05Rik) was identified as a top candidate.
# Transfections were performed in 384 well plates (Corning 3707). Plates were coated with 0.1% gelatin in H2O overnight at ambient temperature. Gelatin solution was aspirated (BioTek EL406) and siRNAs were printed using a Bravo VPrep liquid handler integrated within a BioCel automation platform (Agilent). Cell viability was measured using CellTiter Glo (Promega). For transfections, […] of serum free media containing Lipofectamine RNAiMax […] was added to wells containing siRNA (0.8pmol). Lipid and siRNA were allowed to complex for 45 min at ambient temperature before addition of 1000 cells in DMEM, 30% FBS to yield final transfection mixtures containing 20 nM siRNA in DMEM, 15% FBS. PARPi (olaparib, AZD2281) was added 48 h post-transfection (500 nM) and viability (CellTiter Glo, Promega) was assayed 72 h later on a PerkinElmer Envision 2104 Multilabel plate reader. Ambion Silencer Select Negative Control #2 was incorporated on all screening plates (16 wells) and the median negative control value on each plate was used for normalization. An siRNA targeting Trp53 was used as a positive control. This control yielded a median protective effect of ~1.9 fold versus negative control throughout the screen. The median absolute deviation (MAD) based z-score was calculated for each siRNA. Genes were then ranked by taking the median value for all siRNAs tested against a given gene. Scores were also adjusted for seed-based off-target effects to help deprioritize likely false positives.
row,Sequence,z-score
1,GGCCAUGCUGAAAGUAUUUTT against Olfr561,inactive: -0.231
2,GGAUUUACAUUCUCAUUGUTT against Olfr995,inactive: -0.397
3,CGUAUUCCCUAGUUUCAGATT against Kirl2,inactive: 0.791
4,GCACAGCUAAACUUAACUATT against Taz,inactive: 0.0413
5,GGCAAAAUUUUAUAAGCUGTT against Ttf1,inactive: 0.157
6,GGUUUUACUGUAGACCUUUTT against Hnrpa1,inactive: 0.326
7,GGCCAACUCACCUUUCUAGTT against D630023F18Rik,inactive: 0.77
8,GGCAGUAUAAUUCGUUGUATT against 2610528A15Rik,inactive: 0.464
9,GGCAGUGAGAGUCACAAGATT against Cdipt,inactive: -0.608
10,GGAGGACAGUAGGUGGCAATT against Clp1,inactive: -2.09
11,GGAGCACAUGCUGAAGGAUTT against BC037006,inactive: -1.38
12,CGAUCUGUGCAACAUCCUGTT against Trik,inactive: -0.708
13,GCCUAACUAUGAAACUUCGTT against Ppp1r11,inactive: -1.24
14,GGCCUUCAGUCAAAUGGGATT against 4921536K21Rik,inactive: -0.0582
15,GGGAGAACUCCUGAUUGACTT against Nnmt,inactive: 0.549
16,CGUUCAGGAAACUACAAAATT against Mto1,inactive: -0.384
17,GCUCAUUGGGAUCAUUGGUTT against Fancd2,inactive: -1.65
18,GCCAGAUCGCUAAAAUCGUTT against 2410166I05Rik,inactive: 0.194
19,GCUAAAAGAUCAUUGGAGUTT against Ear10,inactive: 1.24
20,GGGUGUCUUCAACAAGUACTT against Dnttip1,inactive: -3.43
21,GGUGUUCAAAAAGUUUAACTT against Zswim1,inactive: 0.276
22,GGAAUCUACCACUUGGUUCTT against Chrdl2,inactive: 0.342

# Some of the entries above, reformatted.
row | Sequence | z-score
14 | GGCCUUCAGUCAAAUGGGATT against 4921536K21Rik | inactive: -0.0582
15 | GGGAGAACUCCUGAUUGACTT against Nnmt | inactive: 0.549
16 | CGUUCAGGAAACUACAAAATT against Mto1 | inactive: -0.384
17 | GCUCAUUGGGAUCAUUGGUTT against Fancd2 | inactive: -1.65

# Remaining list, next part

row,Sequence,z-score
1,GGUGUCUUUAUUUAAUAGGTT against Ccng2,inactive: 0.0417
2,GGGCUUCGGGUUAAGAAGGTT against Tnfrsf5,inactive: -0.773
3,GCUCUUGGCAAGGACAAUUTT against A830019P07Rik,inactive: -1.58
4,GGGAUCAAGUGUUUCGCUGTT against Apbb1,inactive: 0.53
5,GCUCGUUUGUGUAUAAGGATT against 4930503L19Rik,inactive: -0.122
6,GGAAAAACAGUGCAGAUGGTT against 4931400A14Rik,inactive: -0.824
7,GGCCGAUGUUUAUUCUUUUTT against 4921513O20Rik,inactive: 0.00235
8,CCAUAUGAAACUUAUAGCCTT against Nmi,inactive: 1.53
9,GCAAGGUGAUCACUCUCUCTT against Olfr187,inactive: 0.249
10,GCCUUGAUAAUUUUGUAAGTT against A630002K24,inactive: 0.276
11,GGAAAAAAGGAACAAAUGCTT against Pde5a,inactive: 1.05
12,CCAACUAUAACUCAGUCACTT against Ebf1,inactive: 0.374
13,GGAAGAGAAGGAGAAUGAATT against 4930424G05Rik,inactive: -0.0244
14,CCUUAAGGAAUGCCAGCAATT against 5930403N24Rik,inactive: -1.01
15,GGAAGAGCUGCUGAAAGAGTT against Tekt2,inactive: 1.32
16,GGAUAGCUAUGAACGUAGCTT against AI595366,inactive: 0.706
17,GGAUAGAAAAUCUGUGUUUTT against Rnf33,inactive: 0.507
18,CCUACUACCAGGAUGAACATT against Men1,inactive: 0.8
19,GGAAGGAGUAUAUUAAUGCTT against Stx18,inactive: 0.697
20,GUUUUGUUUCAGAGCACAATT against Olfr898,inactive: 1.12
21,GCCAGACUAAGCUUAAGACTT against Clca2,inactive: 0.778
22,GGUCAAAUAAAACAGAAGATT against Denr,inactive: 0.33

row,Sequence,z-score
1,CGUGGAGAUCAUCCACUCATT against 2610204M08Rik,inactive: -1.96
2,GGUAAAAGCGAUUUGGACUTT against Gsc,inactive: 0.129
3,GGUUAACGAGCACAUUACCTT against Lmod2,inactive: -1.11
4,GGCCAUCAGUAUCAGCAAATT against Hip1r,inactive: 2.86
5,GCGAUACAUAUGUGAGUUUTT against Clecsf1,inactive: 0.0491
6,GCUGGAGACGUAUUUGUCCTT against Olfr294,inactive: 0.773
7,CCGGAAAUAAAGGCGGAGUTT against 2410026K10Rik,inactive: 1
8,GCCUCAUGUACGGACACAATT against Mpp4,inactive: 0.0646
9,GGAAAUACCCUGAUAGCCATT against 9430077C05Rik,inactive: -1.23
10,GGGUAUCAUGGGAAACAGATT against Atp12a,inactive: -0.65
11,GGUUCCAUUCCCUCACAAUTT against Bcl9,inactive: 0.402
12,GGGAAAUCAAGAUCAUUUCTT against Olfr1294,inactive: 1.18
13,GGAGUGUUAAGAUUUGGAATT against Chpt1,inactive: 0.769
14,GCUUUUUAUAUGUGCGCAGTT against 6430544H17Rik,inactive: 3.1
15,GGUGUGGACUGUCAUCUCUTT against Olfr139,inactive: 0.226
16,GGGUUUCUGACACAUUUCUTT against 6720456H20Rik,inactive: -0.988
17,GCCACCUCAAUGAAAGGAGTT against Slc23a1,inactive: 0.609
18,GGAAAUCAGACUGCUCAAGTT against Nek3,inactive: -1.35
19,GGACAGGUGUCGAUCAAACTT against Suhw3,inactive: 0.897
20,CCAGAUCAGAUCCAGUACATT against Gja7,inactive: 0.564
21,GGGAUAGAGAAGAAGAAAATT against Dguok,inactive: 0.0563
22,GGCAGAGGUUGAAAGACUUTT against 6720467C03Rik,inactive: 0.232
